Test results reported in article PMC11291266.

Amino acid sequences for entries named in this document (tags omitted).
UniProt Q9BSU1: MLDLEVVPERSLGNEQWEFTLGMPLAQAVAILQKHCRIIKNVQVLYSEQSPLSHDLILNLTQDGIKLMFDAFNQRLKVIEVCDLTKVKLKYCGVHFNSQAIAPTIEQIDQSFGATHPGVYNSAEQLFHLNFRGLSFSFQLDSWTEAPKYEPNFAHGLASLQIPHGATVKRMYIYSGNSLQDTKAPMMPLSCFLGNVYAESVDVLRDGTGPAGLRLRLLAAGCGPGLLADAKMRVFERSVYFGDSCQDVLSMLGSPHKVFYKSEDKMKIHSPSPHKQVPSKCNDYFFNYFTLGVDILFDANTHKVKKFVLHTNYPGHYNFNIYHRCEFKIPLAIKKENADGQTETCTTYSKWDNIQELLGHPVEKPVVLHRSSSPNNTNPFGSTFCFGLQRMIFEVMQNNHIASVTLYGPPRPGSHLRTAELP
UniProt Q9H6U6: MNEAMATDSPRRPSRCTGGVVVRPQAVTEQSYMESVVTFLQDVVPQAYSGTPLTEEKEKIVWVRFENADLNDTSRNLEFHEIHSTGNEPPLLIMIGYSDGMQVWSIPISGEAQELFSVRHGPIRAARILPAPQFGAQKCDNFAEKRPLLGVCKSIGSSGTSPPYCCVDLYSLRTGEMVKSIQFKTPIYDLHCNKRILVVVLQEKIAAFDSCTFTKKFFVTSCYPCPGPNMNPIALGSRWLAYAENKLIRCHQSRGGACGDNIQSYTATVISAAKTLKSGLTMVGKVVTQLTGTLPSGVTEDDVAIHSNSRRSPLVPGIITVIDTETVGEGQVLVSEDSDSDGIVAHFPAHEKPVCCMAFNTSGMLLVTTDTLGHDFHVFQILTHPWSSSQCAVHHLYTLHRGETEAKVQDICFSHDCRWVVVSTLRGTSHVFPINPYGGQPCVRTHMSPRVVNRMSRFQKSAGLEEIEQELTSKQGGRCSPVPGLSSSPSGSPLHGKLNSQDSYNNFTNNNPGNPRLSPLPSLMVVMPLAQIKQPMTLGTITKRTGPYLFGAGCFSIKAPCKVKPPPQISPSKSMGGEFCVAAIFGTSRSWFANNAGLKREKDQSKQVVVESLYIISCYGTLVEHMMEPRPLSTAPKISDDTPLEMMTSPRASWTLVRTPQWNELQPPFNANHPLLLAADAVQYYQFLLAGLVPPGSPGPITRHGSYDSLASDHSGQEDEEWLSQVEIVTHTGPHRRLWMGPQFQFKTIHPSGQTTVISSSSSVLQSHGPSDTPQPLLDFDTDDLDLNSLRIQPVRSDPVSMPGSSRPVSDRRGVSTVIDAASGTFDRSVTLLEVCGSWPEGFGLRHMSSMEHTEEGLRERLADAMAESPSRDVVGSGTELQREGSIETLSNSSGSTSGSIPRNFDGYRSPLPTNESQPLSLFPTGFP

Molecular target: endogenous HA-tagged MYTHO (human (endogenous in HeLa)) (UniProt Q9BSU1)
Assay: affinity purification with mass spectrometry; immunoprecipitated endogenous HA-tagged MYTHO; proteomic analysis of the precipitate

binding | Substance
binds | endogenous BCAS3 (from UniProt Q9H6U6 1-928)
binds | p62/SQSTM1 (from UniProt Q13501 1-440)

These are yes or no findings as the source states them, for the method shown. In cells and extracts the contact can be indirect. These calls come from enrichment with a bait or labelling near it, and not all partners need be listed.
